Patent US11944628B2, “Methods for the use of low-dose immune modulators transiently for treating patients undergoing protein replacement therapy” (Duke University, priority 2017, dated 2024)

System: anti-rhGAA IgG antibodies
Assay: Anti-rhGAA IgG antibody titers over time (ELISA, confirmed by radioimmunoprecipitation) in Pompe disease patients on ERT with TLD-MTX or on ERT monotherapy (comparators)
Assay type: in vivo, human
Method: Methotrexate at 0.4 mg/kg body weight was administered subcutaneously (or orally if subcutaneous administration was not possible) on three consecutive days/MTX cycle/infusion; with the first three ERT infusions (i.e., on Days 0, 14, and 28 for patients infused EOW) for a total of 3 cycles. On the day of ERT infusion, methotrexate was administered 15 minutes (if subcutaneous) or 1 hour (if oral) before infusion initiation and again on the following 2 days. To exemplify the schedule, in a patient receiving ERT infusion EOW, methotrexate was administered on Days 0, 1, and 2 (first cycle); Days 14, 15, and 16 (second cycle), and Days 28, 29, and 30 (third cycle). As stated earlier, the dose and frequency of ERT could be increased at the discretion of the treating physician, based on patients' clinical and IAR status, in which case methotrexate cycles were adjusted accordingly (see FIG. 2 for details).
Anti-rhGAA IgG antibodies were determined by Sanofi Genzyme (Framingham, MA, USA) using enzyme-linked immunosorbent assays and confirmed using radioimmunoprecipitation as described previously (Kishnani et al. (2006) J. Pediatr. 149:89-97). Antibody analyses were recommended to be performed at Days −1, 28, 56, 84, 112, 140, 168, 196, 224, 252, 280, 308, 336, and 364.
rhGAA IgG titers were determined over time. Patients were classified into HSAT (≥51,200 on ≥2 occasions at or beyond 6 months on ERT), sustained intermediate titer (SIT) (≥12,800 and <51,200 within the first year of ERT), and low titer (LT; ≤6,400 within the first year of ERT) groups based on the longitudinal anti-rhGAA IgG titers. […] Medians and ranges were determined for baseline, peak, and last titers, although our focus was on longitudinal titers through time because sustained titers affect clinical response.
The comparators received rhGAA alone. The GAA variant data and age at ERT initiation were compared with our cohort of TLD-MTX recipients. Immune responses over time were classified into HSAT, SIT, and LT as defined above, and time to seroconversion, peak titers, titers at Weeks 12, 24, and 52 were compared with our present cohort of TLD-MTX recipients.

Row | Compound | Seroconversion week (median time to seroconversion) (LT group, IOPD) | Time since ERT initiation (median time of peak titer) (LT group, IOPD) | Time on ERT (peak titer), median (median of 14 IOPD patients on TLD-MTX protocol) | Time since ERT initiation (median time of peak titer) (HSAT group, IOPD) | Time since ERT initiation (median time of peak titer) (SIT group, IOPD)
1 | CN(Cc1cnc2nc(N)nc(N)c2n1)c1ccc(C(=O)N[C@@H](CCC(=O)O)C(=O)O)cc1 [methotrexate] | 6 weeks | 20.5 weeks | 20.5 weeks | – | –
2 | Alglucosidase alfa [ERT monotherapy] | – | 38 weeks | – | 82 weeks | 12 weeks
